Assay results from US20250263370A1 (Tay Therapeutics Limited, priority 2022, published 2025).
Where “and” joins values, the source holds several entries; their conditions need not be identical. Equal values may be shown once. Further values from the same series stand in other lists.

Tested on: collagen-induced arthritis
Experiment: Collagen-induced arthritis (CIA) model in rats: body weight, paw volume, clinical scores, clinical observations; as to Detailed Clinical Scores, left forelimb: key of the grades not given here; as to Detailed Clinical Scores, left hind limb: key of the grades not given here; as to Detailed Clinical Scores, right forelimb: key of the grades not given here; as to Detailed Clinical Scores, right hind limb: key of the grades not given here; as to Detailed Clinical Scores, score: key of the grades not given here; as to Detailed Clinical Scores: left forelimb: key of the grades not given here; as to Detailed Clinical Scores: left hind limb: key of the grades not given here; as to Detailed Clinical Scores: right forelimb: key of the grades not given here; as to Detailed Clinical Scores: right hind limb: key of the grades not given here; as to Detailed Clinical Scores: score: key of the grades not given here; as to Overall clinical score: key of the grades not given here
Conditions: for Animal paw volume percent change: individual animals; for Detailed Clinical Scores, left forelimb / Detailed Clinical Scores, left hind limb / Detailed Clinical Scores, right forelimb / Detailed Clinical Scores, right hind limb / Detailed Clinical Scores, score / Overall clinical score / Detailed Clinical Scores: left forelimb / Detailed Clinical Scores: right forelimb / Detailed Clinical Scores: score / Detailed Clinical Scores: left hind limb / Detailed Clinical Scores: right hind limb: CIA rats; for Detailed Clinical Scores, left forelimb / Detailed Clinical Scores, left hind limb / Detailed Clinical Scores, right forelimb / Detailed Clinical Scores, right hind limb / Detailed Clinical Scores, score / Detailed Clinical Scores: left forelimb / Detailed Clinical Scores: right forelimb / Detailed Clinical Scores: score / Detailed Clinical Scores: left hind limb / Detailed Clinical Scores: right hind limb: individual animals ID 1-8; for Overall clinical score: individual animals #1-8

## CNC(=O)c1[nH]c(C(=O)NC2CCC2)cc1O[C@@H](C)c1ccccc1 (stereo in doubt) [Example 101, N^5-cyclobutyl-N^2-methyl-3-(1-phenylethoxy)-1H-pyrrole-2,5-dicarboxamide]
Day 0, L paw, 3 mg/kg
  Animal paw volume percent change: 0.00%
Day 0, L paw, 10 mg/kg
  Animal paw volume percent change: 0.00%
Day 0, L paw, 30 mg/kg
  Animal paw volume percent change: 0.00%
Day 0, R paw, 3 mg/kg
  Animal paw volume percent change: 0.00%
Day 0, R paw, 10 mg/kg
  Animal paw volume percent change: 0.00%
Day 0, R paw, 30 mg/kg
  Animal paw volume percent change: 0.00%
Day 0, 3 mg/kg
  Detailed Clinical Scores, left forelimb: 0
  Detailed Clinical Scores, left hind limb: 0
  Detailed Clinical Scores, right forelimb: 0
  Detailed Clinical Scores, right hind limb: 0
  Detailed Clinical Scores, score: 0
Day 0, 10 mg/kg
  Detailed Clinical Scores, left forelimb: 0
  Detailed Clinical Scores, left hind limb: 0
  Detailed Clinical Scores, right forelimb: 0
  Detailed Clinical Scores, right hind limb: 0
  Detailed Clinical Scores, score: 0
Day 0, 30 mg/kg
  Detailed Clinical Scores, left forelimb: 0
  Detailed Clinical Scores, left hind limb: 0
  Detailed Clinical Scores, right forelimb: 0
  Detailed Clinical Scores, right hind limb: 0
  Detailed Clinical Scores, score: 0
  Overall clinical score: 0
Day 6, L paw, 3 mg/kg
  Animal paw volume percent change: 0.00% (3×) and 0.77% and 0.38% and 6.08% and 0.74% and 0.75%
Day 6, L paw, 10 mg/kg
  Animal paw volume percent change: 1.44% and −2.78% and 1.56% and 3.50% and 2.30% and 3.46% and 0.00% and −0.40%
Day 6, L paw, 30 mg/kg
  Animal paw volume percent change: 1.89% and 0.76% (2×) and 0.00% and 0.38% (2×) and 1.54% and 0.37%
Day 6, R paw, 3 mg/kg
  Animal paw volume percent change: 0.00% (2×) and 0.76% and 0.75% and 5.68% and 1.12% and 0.77% and 0.74%
Day 6, R paw, 10 mg/kg
  Animal paw volume percent change: 0.00% (2×) and −1.59% and 1.54% and 2.32% and 3.09% and 2.30% and −0.73%
Day 6, R paw, 30 mg/kg
  Animal paw volume percent change: 1.50% and 0.77% and 0.38% and 0.64% and 1.15% and 0.76% (2×) and 0.00%
Day 6, 3 mg/kg
  Detailed Clinical Scores, left forelimb: 0
  Detailed Clinical Scores, left hind limb: 0
  Detailed Clinical Scores, right forelimb: 0
  Detailed Clinical Scores, right hind limb: 0
  Detailed Clinical Scores, score: 0
Day 6, 10 mg/kg
  Detailed Clinical Scores, left forelimb: 0
  Detailed Clinical Scores, left hind limb: 0
  Detailed Clinical Scores, right forelimb: 0
  Detailed Clinical Scores, right hind limb: 0
  Detailed Clinical Scores, score: 0
Day 6, 30 mg/kg
  Detailed Clinical Scores, left forelimb: 0
  Detailed Clinical Scores, left hind limb: 0
  Detailed Clinical Scores, right forelimb: 0
  Detailed Clinical Scores, right hind limb: 0
  Detailed Clinical Scores, score: 0
  Overall clinical score: 0
Day 12, L paw, 3 mg/kg
  Animal paw volume percent change: 1.48% and 0.77% and 5.32% and 7.60% and 1.49% and 24.52% and 1.47% and 3.75%
Day 12, L paw, 10 mg/kg
  Animal paw volume percent change: 9.39% and −0.40% and 10.89% and 26.46% and 2.30% and 10.38% and 1.47% and 0.40%
Day 12, L paw, 30 mg/kg
  Animal paw volume percent change: 2.26% and 1.52% and −1.13% and 0.76% and 3.04% and 0.38% and 3.09% and 0.75%
Day 12, R paw, 3 mg/kg
  Animal paw volume percent change: 1.45% and 8.37% and 3.00% and 10.23% and 2.61% and 9.96% and 0.74% and 3.75%
Day 12, R paw, 10 mg/kg
  Animal paw volume percent change: 2.49% and 1.20% and 44.79% and 2.32% and 3.86% and 5.36% and 1.47% and 2.39%
Day 12, R paw, 30 mg/kg
  Animal paw volume percent change: 12.36% and 3.83% and 1.53% and 0.64% and 1.92% and 0.76% and 2.66% and −0.75%
Day 12, 30 mg/kg
  Overall clinical score: 1 and 0 (7×)
Day 13, L paw, 3 mg/kg
  Animal paw volume percent change: 19.19% and 16.86% and 14.07% and 16.73% and 2.23% and 42.15% and 4.40% and 5.24%
Day 13, L paw, 10 mg/kg
  Animal paw volume percent change: 23.10% and 4.37% and 40.47% and 42.02% and 3.07% and 11.15% and 5.13% and 3.57%
Day 13, L paw, 30 mg/kg
  Animal paw volume percent change: 5.28% and 3.04% and 0.00% and 1.52% and 4.56% and 2.29% and 4.63% and 0.75%
Day 13, R paw, 3 mg/kg
  Animal paw volume percent change: 2.91% and 13.69% and 5.24% and 10.98% and 4.10% and 28.35% and 5.20% and 3.75%
Day 13, R paw, 10 mg/kg
  Animal paw volume percent change: 9.25% and 5.18% and 46.33% and 5.41% (2×) and 8.05% and 5.13% and 2.39%
Day 13, R paw, 30 mg/kg
  Animal paw volume percent change: 14.98% and 5.36% and 2.30% and 2.15% and 4.62% and 1.52% and 3.04% and −0.75%
Day 13, 10 mg/kg
  Overall clinical score: 2 and 1
Day 13, 30 mg/kg
  Overall clinical score: 1 and 0 (7×)
Day 14, L paw, 3 mg/kg
  Animal paw volume percent change: 22.88% and 28.74% and 27.76% and 24.71% and 17.84% and 53.64% and 19.05% and 21.72%
Day 14, L paw, 10 mg/kg
  Animal paw volume percent change: 44.40% and 19.05% and 60.70% and 90.66% and 6.13% and 11.15% and 5.49% and 3.57%
Day 14, L paw, 30 mg/kg
  Animal paw volume percent change: 5.28% and 2.28% and −0.75% and 4.18% and 3.80% and 2.67% and 4.63% and −3.00%
Day 14, R paw, 3 mg/kg
  Animal paw volume percent change: 13.82% and 15.21% and 5.62% and 41.29% and 11.57% and 55.94% and 5.95% and 6.74%
Day 14, R paw, 10 mg/kg
  Animal paw volume percent change: 14.95% and 33.47% and 71.81% and 28.57% and 5.41% and 9.20% and 6.59% and 1.59%
Day 14, R paw, 30 mg/kg
  Animal paw volume percent change: 14.61% and 4.60% and 3.07% and 2.15% and 4.62% and 3.04% and 2.66% and −4.12%
Day 14, 10 mg/kg
  Overall clinical score: 5 and 0 (4×)
Day 14, 30 mg/kg
  Overall clinical score: 1 and 0 (7×)
Day 15, L paw, 3 mg/kg
  Animal paw volume percent change: 23.99%
Day 15, L paw, 10 mg/kg
  Animal paw volume percent change: 8.79% and 19.44%
Day 15, L paw, 30 mg/kg
  Animal paw volume percent change: 9.81% and 35.74% and 18.11% and 4.56% (2×) and 1.91% and 10.81% and −1.87%
Day 15, R paw, 3 mg/kg
  Animal paw volume percent change: 18.91%
Day 15, R paw, 10 mg/kg
  Animal paw volume percent change: 10.26% and 20.72%
Day 15, R paw, 30 mg/kg
  Animal paw volume percent change: 13.86% and 4.98% and 28.35% and 3.66% and 14.23% and 3.42% and 31.56% and −3.00%
Day 15, 10 mg/kg
  Overall clinical score: 6 and 0 and 1 (2×) and 2
Day 15, 30 mg/kg
  Overall clinical score: 1 and 2 (3×) and 0 (4×)
Day 18, L paw, 3 mg/kg
  Animal paw volume percent change: 63.47%
Day 18, L paw, 10 mg/kg
  Animal paw volume percent change: 20.15% and 19.44%
Day 18, L paw, 30 mg/kg
  Animal paw volume percent change: 9.81% and 55.51% and 43.02% and 11.41% (2×) and 28.24% and 48.65% and 26.97%
Day 18, R paw, 3 mg/kg
  Animal paw volume percent change: 96.73%
Day 18, R paw, 10 mg/kg
  Animal paw volume percent change: 15.38% and 19.92%
Day 18, R paw, 30 mg/kg
  Animal paw volume percent change: 12.73% and 42.91% and 42.53% and 2.90% and 13.46% and 0.00% and 48.29% and 25.47%
Day 18, 3 mg/kg
  Detailed Clinical Scores: left forelimb: 4
  Detailed Clinical Scores: right forelimb: 4
  Detailed Clinical Scores: score: 8 (4×) and 12 (2×)
Day 18, 10 mg/kg
  Detailed Clinical Scores: left forelimb: 0
  Detailed Clinical Scores: left hind limb: 4 (4×) and 3 and 0 (2×) and 1
  Detailed Clinical Scores: right forelimb: 0 (6×) and 4 and 3
  Detailed Clinical Scores: right hind limb: 3 (2×) and 4 (2×) and 1 (2×) and 2 and 0
  Detailed Clinical Scores: score: 7 and 6 (2×) and 12 and 11 and 1 and 2 and 0
  Overall clinical score: 11 and 1 and 2 and 0
Day 18, 30 mg/kg
  Detailed Clinical Scores: left forelimb: 0
  Detailed Clinical Scores: left hind limb: 0 (3×) and 3 and 2 (2×) and 1 (2×)
  Detailed Clinical Scores: right forelimb: 0
  Detailed Clinical Scores: right hind limb: 0 (4×) and 2 (3×) and 1
  Detailed Clinical Scores: score: 0 (3×) and 5 and 4 (2×) and 1 and 2
  Overall clinical score: 0 (3×) and 5 and 4 (2×) and 1 and 2
Day 19, L paw, 3 mg/kg
  Animal paw volume percent change: 105.54%
Day 19, L paw, 10 mg/kg
  Animal paw volume percent change: 78.08% and 20.51% and 26.59%
Day 19, L paw, 30 mg/kg
  Animal paw volume percent change: 6.79% and 55.13% and 55.09% and 18.25% and 17.49% and 41.22% and 49.42% and 24.72%
Day 19, R paw, 3 mg/kg
  Animal paw volume percent change: 100.36%
Day 19, R paw, 10 mg/kg
  Animal paw volume percent change: 42.91% and 14.65% and 23.90%
Day 19, R paw, 30 mg/kg
  Animal paw volume percent change: 7.49% and 49.81% and 63.60% and 4.41% and 13.46% and 38.78% and 55.13% and 26.22%
Day 19, 3 mg/kg
  Detailed Clinical Scores: left forelimb: 4
  Detailed Clinical Scores: right forelimb: 4
  Detailed Clinical Scores: score: 8 (2×) and 16 and 12 (2×)
Day 19, 10 mg/kg
  Detailed Clinical Scores: left forelimb: 0
  Detailed Clinical Scores: left hind limb: 3 (3×) and 4 (2×) and 0 and 1 (2×)
  Detailed Clinical Scores: right forelimb: 1 (2×) and 0 (4×) and 4 and 3
  Detailed Clinical Scores: right hind limb: 3 (3×) and 4 (2×) and 2 (3×)
  Detailed Clinical Scores: score: 7 (2×) and 6 and 12 and 11 and 2 and 3 (2×)
  Overall clinical score: 11 and 2 and 3 (2×)
Day 19, 30 mg/kg
  Detailed Clinical Scores: left forelimb: 0
  Detailed Clinical Scores: left hind limb: 0 and 3 (2×) and 1 (3×) and 2 (2×)
  Detailed Clinical Scores: right forelimb: 0 (6×) and 1 (2×)
  Detailed Clinical Scores: right hind limb: 0 (3×) and 3 (4×) and 2
  Detailed Clinical Scores: score: 0 and 6 (2×) and 7 and 1 (2×) and 5 and 3
  Overall clinical score: 0 and 6 (2×) and 7 and 1 (2×) and 5 and 3
Day 21, L paw, 3 mg/kg
  Animal paw volume percent change: 111.44%
Day 21, L paw, 10 mg/kg
  Animal paw volume percent change: 78.85% and 33.70% and 26.59%
Day 21, L paw, 30 mg/kg
  Animal paw volume percent change: 7.55% and 57.79% and 58.87% and 16.73% (2×) and 56.87% and 64.09% and 24.72%
Day 21, R paw, 3 mg/kg
  Animal paw volume percent change: 101.09%
Day 21, R paw, 10 mg/kg
  Animal paw volume percent change: 64.75% and 32.97% and 28.69%
Day 21, R paw, 30 mg/kg
  Animal paw volume percent change: 6.74% and 60.54% and 65.13% and 5.16% and 12.69% and 52.09% and 61.22% and 25.09%
Day 21, 3 mg/kg
  Detailed Clinical Scores: left forelimb: 1 and 0 (5×) and 3 and 4
  Detailed Clinical Scores: left hind limb: 4
  Detailed Clinical Scores: right forelimb: 0 (5×) and 3 and 1 and 4
  Detailed Clinical Scores: right hind limb: 4 (6×) and 3 (2×)
  Detailed Clinical Scores: score: 9 and 7 (2×) and 8 (2×) and 14 and 13 and 12
Day 21, 10 mg/kg
  Detailed Clinical Scores: left forelimb: 0
  Detailed Clinical Scores: left hind limb: 3 (3×) and 4 (2×) and 0 and 2 and 1
  Detailed Clinical Scores: right forelimb: 1 (2×) and 0 (4×) and 4 (2×)
  Detailed Clinical Scores: right hind limb: 3 (3×) and 4 (2×) and 2 (2×) and 1
  Detailed Clinical Scores: score: 7 (2×) and 6 and 12 (2×) and 2 (2×) and 4
  Overall clinical score: 2 (2×) and 4
Day 21, 30 mg/kg
  Detailed Clinical Scores: left forelimb: 0
  Detailed Clinical Scores: left hind limb: 0 and 3 (4×) and 1 (3×)
  Detailed Clinical Scores: right forelimb: 0 (7×) and 1
  Detailed Clinical Scores: right hind limb: 0 (3×) and 3 (4×) and 1
  Detailed Clinical Scores: score: 0 and 6 (3×) and 7 and 1 (2×) and 2
  Overall clinical score: 0 and 6 (3×) and 7 and 1 (2×) and 2
